Among the data in PMC5099689 are binding values, retold here.

Amino acid sequences for entries named in this document (tags omitted). Residues count along the entry.
UniProt Q06749, residues 28-367: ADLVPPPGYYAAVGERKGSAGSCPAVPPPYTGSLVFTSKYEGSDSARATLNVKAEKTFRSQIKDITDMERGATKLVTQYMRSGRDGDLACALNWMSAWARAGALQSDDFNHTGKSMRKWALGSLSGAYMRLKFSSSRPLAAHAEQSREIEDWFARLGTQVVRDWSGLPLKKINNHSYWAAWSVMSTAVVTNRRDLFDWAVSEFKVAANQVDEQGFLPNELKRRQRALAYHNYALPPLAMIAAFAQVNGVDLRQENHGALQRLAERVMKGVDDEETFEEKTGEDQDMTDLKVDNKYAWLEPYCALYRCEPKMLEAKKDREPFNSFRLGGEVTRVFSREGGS
UniProt Q51371, residues 36-543: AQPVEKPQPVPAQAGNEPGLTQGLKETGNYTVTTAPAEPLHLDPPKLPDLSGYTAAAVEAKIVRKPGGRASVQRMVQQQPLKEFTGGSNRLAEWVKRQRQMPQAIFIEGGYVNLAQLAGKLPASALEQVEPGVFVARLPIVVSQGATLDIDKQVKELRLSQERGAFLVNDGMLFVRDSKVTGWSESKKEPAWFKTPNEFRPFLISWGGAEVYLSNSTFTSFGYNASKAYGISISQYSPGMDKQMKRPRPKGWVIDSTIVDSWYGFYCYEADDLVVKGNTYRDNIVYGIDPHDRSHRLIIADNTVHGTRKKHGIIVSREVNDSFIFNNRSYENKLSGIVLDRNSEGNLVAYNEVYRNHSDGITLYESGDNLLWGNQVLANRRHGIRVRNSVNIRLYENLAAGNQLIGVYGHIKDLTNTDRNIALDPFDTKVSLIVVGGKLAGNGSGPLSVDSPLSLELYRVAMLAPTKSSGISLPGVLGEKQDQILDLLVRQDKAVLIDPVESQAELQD

The chains are these.
B1: Alg44 (protein, UniProt Q9HY69 1-389)
chain: MNTAVNVNVVHESEAQRQFARVKLPARIRYIGANREGVDARLLDLSAGGFAFTASGAPIQPGDLYKGKLLFQVDSISFSLEVEFQVRSVDPASRRVGCEFQNLKPREVAALRYLITSYLAGEVIGVGDMLNTLQRENFTKARKQGGGNGGMGFFGRVRAVTLSTAIFVVGVGAFAFILNQMYNLYFVTHADSGVVSVPNQQITMPREGTVQSLLGPNAEVAKGAPIATFSANLLDMLKGNLTEEQLNPGNIEKLFGHQMKGTLTSPCDCRVVQQLVADGQYANKGQVIFTLAPRDSVASIEARFPYRNAAELAPGTRVNFQVAGDGVNRSGRIVNTAPVDGDLSSEIRVQIQPDQPLDAQYAGRPAEVSIGGLPGRTLLNKAVTLATAR
B2: AlgK (protein, UniProt P96956 28-475)
chain: CAGLPDQRLAQEALERGDLATAQSNYQALAAMGYADAQVGLADMQVASGDSAQQAKAEKLYREAAQTSPRARARLGKWLAAKPGASDAEHREAERLLSQAFEQGEDSALVPLIVLYLQYPQSWPEIDPQQRIDQWRARGLPQADLAQIILYRTQGTYAQHLGEIEQVCQRWLRRMDVCWYELATVYQMQGNAEKQKVLLEQLRAAYKAGRVPGERVDSVAGVLADGELGQPDPQTAQALLEEIAPSYPAAWVSLAKLLYDYPDQGDLEKMLGYLKNAQDAAQPRAELLLGRLYYDGKWAPQDPRKAERHLLKAAASEPQANYYLGQIYRRGFLGKVYPQKAVDHLILAARAGQASADMALAQLWSQGRGIQPNRVNAYVFGQLAVQQQVPQASDLLGQIEAQLPPAERSQAQQLLKREQQSRGNNWQATVSLLQSQDSPINEEEPESL

No constants are given. Whether binding was seen depends on the method and setting. In cells and extracts the contact can be indirect.

The test addresses hexahistidine-tagged AlgL (P. aeruginosa) (UniProt Q06749). The experiment in a line: pull-down; his-tagged AlgL purified from envelope fractions solubilized with 0.2% Triton X-100 (100 mM phosphate buffer, 150 mM NaCl, 5 mM imidazole, 5 mM EDTA, 10% glycerol) on cOmplete His-Tag Purification Resin, 1 h on ice, native conditions; four washes; eluted with 400 mM imidazole; eluted fractions immunoblotted with anti-Alg44, -AlgK, -AlgG, -AlgX; strains grown on PIA with 0.05% arabinose for 72 h at 37 °C.
“AlgG (from UniProt Q51371 36-543) (enzyme)”: the binding entry is listed as “no binding”.
For the molecule B1, the binding entry is “no binding”.
To B2 belongs “no binding”.
